Measured data: PubChem BioAssay AID743454 (Peter MacCallum Cancer Centre, 2014)
Aim: 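Search for knock-downs that restore vorinostat killing in resistant colon cancer cells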 (primary screen). Cells: human HCT116-VR colon cancer cells, selected for vorinostat resistance. Knock-down reagent: siRNA pool against human genes, 40 nM siRNA pool. Duration: vorinostat for 24 h, read-out about 72 h after transfection. Treatment: vorinostat at 2.5 µM final. Measurement: 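Two measures, CellTiter-Fluor viability and luminescent caspase 3/7 activity, each as fold change against same-plate mock wells, mean of duplicates, then screen-wide robust z-score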. Direction: viability robust z-score: higher = more viable cells than screen typical; caspase robust z-score: higher = more caspase 3/7 activity than screen typical. Call rule: 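Hits are knock-downs in viability class RV1/RV2 or caspase class CA1/CA2, excluding ones that killed cells in the no-drug cell-count arm; hits then retested with single siRNAs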.
Shown is an unselected part of about 18,000 reagents tested. Of all reagents, 450 (2.5%) are marked active. 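Single biological run; no consistent viability z cut-off exists, so the class columns, not z-scores, define the calls.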 Entries without a mark were called inactive.

gene knocked down | viability hit class | caspase hit class | viability robust z-score | caspase robust z-score
RETNLB | no change | no change | 0.11 | 0.88
UBXN1 | no change | no change | 0.38 | 2.52
APBA3 | no change | no change | -2.31 | 0.55
CASP6 | no change | no change | 0.44 | 0.37
TBX10 | no change | no change | 0.7 | 1.29
CCDC17 | no change | no change | 0.34 | 0.44
SFMBT2 | no change | no change | -0.11 | -0.08
ZNF436-AS1 | no change | no change | -0.39 | 1.56
MFSD6 | no change | no change | 0.49 | -0.18
PXYLP1 | no change | no change | -2.84 | 1.2
SMPD1 | no change | no change | -0.47 | -0.78
IARS2 | no change | no change | 0.78 | -0.6
TGM2 | no change | no change | 0.49 | -0.73
ZNF770 | no change | no change | -1.61 | 0.93
ITPR1 | no change | no change | -0.64 | 3.4
GOLIM4 | no change | no change | 0.74 | -0.08
ANGPTL1 | no change | no change | 0.58 | -0.71
NLRC3 | no change | no change | -2.21 | 0.08
GPR84 | no change | no change | -1.21 | 2.59
DTD1 | no change | no change | -0.36 | 1.36
AANAT | no change | no change | -2.51 | -0.34
CLDN14 | no change | no change | -1.9 | 1.02
TNK2 | no change | no change | -0.75 | -0.7
C17orf67 | no change | no change | 0.36 | 0.48
TMEFF1 | no change | no change | 1.03 | -0.65
ZNF354C | no change | no change | 0.49 | -0.24
TSC22D2 | no change | no change | 0.9 | -0.41
PPIL3 | no change | no change | -0.26 | -0.01
FHOD1 | no change | no change | -0.24 | 1.49
OR2J2 | no change | no change | -0.23 | 1.02
CYP27A1 | no change | no change | 1.8 | -0.97
TNRC6B | no change | no change | 0.45 | 0.18
ZNF236 | no change | no change | -0.12 | -1.18
DLEC1 | no change | no change | 0.1 | 0.2
RIPK1 | no change | no change | 0.05 | 0.38
WNT3A | no change | no change | 1.21 | 2.62
KRT8 | no change | no change | 0.33 | -0.45
VTN | no change | no change | 0 | 4.25
OR52E6 | no change | no change | -0.78 | -0.98

A few values from the entries so far:
For “viability hit class”, KRT8 reads no change
For “viability robust z-score”, CCDC17 shows 0.34
Value for TBX10 in “viability robust z-score”: 0.7
Under “caspase robust z-score”, C17orf67 is entered as 0.48
For “viability robust z-score”, DLEC1 reads 0.1
